Laboratory results as given in publication PMC4565672.
No constants are given. Whether binding was seen depends on the method and setting. In cells and extracts the contact can be indirect. Here binding means that the protein was enriched with, or labelled near, the bait; the list need not be complete.

By UniProt entry, the sequences of proteins in these tests, tags left out.
UniProt Q5S007: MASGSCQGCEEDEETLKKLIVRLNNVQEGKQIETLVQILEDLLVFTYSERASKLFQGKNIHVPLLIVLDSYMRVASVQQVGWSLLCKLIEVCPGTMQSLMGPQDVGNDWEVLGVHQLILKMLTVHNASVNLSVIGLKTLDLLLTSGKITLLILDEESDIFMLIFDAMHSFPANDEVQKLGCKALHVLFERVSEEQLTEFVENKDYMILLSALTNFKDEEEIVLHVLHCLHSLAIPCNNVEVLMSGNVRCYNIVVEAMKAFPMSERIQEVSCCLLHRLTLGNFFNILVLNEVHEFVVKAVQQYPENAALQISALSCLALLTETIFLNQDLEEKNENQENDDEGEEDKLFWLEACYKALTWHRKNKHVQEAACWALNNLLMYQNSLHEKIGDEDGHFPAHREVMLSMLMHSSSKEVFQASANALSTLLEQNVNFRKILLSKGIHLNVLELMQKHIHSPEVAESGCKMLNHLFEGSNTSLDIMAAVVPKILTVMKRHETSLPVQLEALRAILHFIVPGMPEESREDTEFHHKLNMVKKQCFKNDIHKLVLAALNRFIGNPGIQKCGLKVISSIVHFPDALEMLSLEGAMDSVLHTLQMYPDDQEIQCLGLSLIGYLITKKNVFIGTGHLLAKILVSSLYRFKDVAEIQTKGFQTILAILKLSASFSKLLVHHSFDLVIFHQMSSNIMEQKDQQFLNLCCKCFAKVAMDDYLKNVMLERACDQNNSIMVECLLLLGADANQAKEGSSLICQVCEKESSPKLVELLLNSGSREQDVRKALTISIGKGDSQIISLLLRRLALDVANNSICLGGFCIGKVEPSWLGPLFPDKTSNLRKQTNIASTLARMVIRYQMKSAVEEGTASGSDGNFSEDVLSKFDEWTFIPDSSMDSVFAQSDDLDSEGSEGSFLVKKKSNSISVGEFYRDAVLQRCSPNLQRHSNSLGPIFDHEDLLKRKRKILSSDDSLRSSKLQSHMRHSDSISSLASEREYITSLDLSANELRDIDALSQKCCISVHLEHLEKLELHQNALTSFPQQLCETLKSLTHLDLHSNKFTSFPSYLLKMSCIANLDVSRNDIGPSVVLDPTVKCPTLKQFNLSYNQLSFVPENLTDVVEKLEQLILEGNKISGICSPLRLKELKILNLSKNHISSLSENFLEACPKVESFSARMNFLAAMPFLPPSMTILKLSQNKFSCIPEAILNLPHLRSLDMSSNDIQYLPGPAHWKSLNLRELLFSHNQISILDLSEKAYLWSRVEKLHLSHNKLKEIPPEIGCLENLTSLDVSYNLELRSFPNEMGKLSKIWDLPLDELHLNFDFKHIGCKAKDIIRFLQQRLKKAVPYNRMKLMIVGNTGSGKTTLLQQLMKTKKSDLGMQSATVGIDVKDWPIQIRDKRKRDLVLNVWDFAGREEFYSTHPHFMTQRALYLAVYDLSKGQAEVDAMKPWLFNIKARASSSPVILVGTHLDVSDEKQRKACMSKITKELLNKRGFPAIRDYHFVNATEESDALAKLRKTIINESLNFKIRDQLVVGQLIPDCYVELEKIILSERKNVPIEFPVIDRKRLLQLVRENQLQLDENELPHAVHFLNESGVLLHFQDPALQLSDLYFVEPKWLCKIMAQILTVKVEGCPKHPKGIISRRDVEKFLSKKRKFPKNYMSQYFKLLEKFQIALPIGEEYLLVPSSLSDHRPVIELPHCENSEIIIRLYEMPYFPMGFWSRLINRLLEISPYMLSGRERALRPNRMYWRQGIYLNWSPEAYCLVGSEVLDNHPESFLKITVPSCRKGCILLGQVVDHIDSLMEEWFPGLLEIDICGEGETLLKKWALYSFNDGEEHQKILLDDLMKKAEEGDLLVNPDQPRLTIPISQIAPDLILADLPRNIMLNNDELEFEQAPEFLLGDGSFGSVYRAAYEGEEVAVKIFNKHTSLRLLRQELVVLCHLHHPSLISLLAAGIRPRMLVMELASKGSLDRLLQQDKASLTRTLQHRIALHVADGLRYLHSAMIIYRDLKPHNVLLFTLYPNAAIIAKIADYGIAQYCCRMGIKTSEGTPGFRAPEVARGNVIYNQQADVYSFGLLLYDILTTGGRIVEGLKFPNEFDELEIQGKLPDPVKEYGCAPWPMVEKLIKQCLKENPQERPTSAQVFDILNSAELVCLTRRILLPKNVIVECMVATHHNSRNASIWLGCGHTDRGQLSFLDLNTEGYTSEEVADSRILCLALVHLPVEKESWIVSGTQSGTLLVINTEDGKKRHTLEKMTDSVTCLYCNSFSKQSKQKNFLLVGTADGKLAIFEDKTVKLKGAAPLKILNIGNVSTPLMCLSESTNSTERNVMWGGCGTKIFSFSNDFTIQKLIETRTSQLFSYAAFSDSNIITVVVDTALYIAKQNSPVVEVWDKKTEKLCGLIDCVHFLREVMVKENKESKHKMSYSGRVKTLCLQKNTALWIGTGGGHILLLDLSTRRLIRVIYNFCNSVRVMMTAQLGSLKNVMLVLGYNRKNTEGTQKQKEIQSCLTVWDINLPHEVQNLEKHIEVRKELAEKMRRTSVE
UniProt Q96JN8: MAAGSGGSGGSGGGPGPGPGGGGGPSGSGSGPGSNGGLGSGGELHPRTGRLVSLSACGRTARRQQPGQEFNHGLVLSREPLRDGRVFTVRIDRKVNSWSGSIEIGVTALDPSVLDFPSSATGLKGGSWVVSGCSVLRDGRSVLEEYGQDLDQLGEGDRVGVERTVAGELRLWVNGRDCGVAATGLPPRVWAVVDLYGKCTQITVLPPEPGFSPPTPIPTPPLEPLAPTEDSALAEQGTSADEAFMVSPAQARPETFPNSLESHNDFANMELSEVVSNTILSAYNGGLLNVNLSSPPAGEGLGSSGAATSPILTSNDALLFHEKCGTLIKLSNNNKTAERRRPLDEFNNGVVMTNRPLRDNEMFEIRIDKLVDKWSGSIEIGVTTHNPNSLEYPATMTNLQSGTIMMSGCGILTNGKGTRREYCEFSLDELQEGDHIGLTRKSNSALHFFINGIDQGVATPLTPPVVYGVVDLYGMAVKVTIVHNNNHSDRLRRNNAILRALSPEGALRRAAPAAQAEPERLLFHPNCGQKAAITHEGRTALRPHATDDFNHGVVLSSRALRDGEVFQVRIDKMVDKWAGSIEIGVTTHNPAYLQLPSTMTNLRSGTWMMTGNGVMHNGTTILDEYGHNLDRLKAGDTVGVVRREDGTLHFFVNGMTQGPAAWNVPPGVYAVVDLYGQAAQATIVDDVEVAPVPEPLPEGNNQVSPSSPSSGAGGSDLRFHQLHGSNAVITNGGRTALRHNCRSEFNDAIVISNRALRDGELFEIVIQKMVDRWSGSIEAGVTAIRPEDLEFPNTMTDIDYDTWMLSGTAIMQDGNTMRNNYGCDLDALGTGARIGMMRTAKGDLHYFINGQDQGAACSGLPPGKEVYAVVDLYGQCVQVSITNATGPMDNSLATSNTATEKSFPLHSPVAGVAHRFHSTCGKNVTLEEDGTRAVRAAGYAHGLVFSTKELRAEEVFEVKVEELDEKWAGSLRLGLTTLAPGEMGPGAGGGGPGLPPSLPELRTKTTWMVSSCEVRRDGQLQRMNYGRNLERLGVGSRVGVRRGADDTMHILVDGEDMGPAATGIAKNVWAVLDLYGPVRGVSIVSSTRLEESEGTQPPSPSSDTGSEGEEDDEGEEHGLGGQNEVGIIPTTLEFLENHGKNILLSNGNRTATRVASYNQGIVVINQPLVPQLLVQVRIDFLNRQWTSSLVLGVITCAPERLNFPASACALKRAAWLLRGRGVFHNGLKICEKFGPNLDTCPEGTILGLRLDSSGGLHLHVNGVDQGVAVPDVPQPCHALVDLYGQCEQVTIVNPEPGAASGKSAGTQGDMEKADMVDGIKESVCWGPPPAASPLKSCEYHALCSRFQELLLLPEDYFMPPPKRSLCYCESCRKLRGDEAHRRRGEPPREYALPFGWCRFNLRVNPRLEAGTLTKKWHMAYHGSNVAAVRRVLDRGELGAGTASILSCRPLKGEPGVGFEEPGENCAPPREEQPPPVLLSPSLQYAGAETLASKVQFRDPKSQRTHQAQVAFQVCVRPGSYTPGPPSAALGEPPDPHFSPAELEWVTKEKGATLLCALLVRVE

Biological target: FLAG-tagged human LRRK2 (wild type) (human) (UniProt Q5S007)
Assay: affinity purification with mass spectrometry; Flp-In 293 cells stably expressing FLAG-LRRK2; lysis buffer 50 mM Tris pH 7.4, 120 mM NaCl, 5 mM EDTA, 10% glycerol, 1% Triton X-100; anti-FLAG M2 affinity gel, eluted with 3x FLAG peptide; silver-stained bands identified by HPLC-MS/MS

For “NEURL4 (endogenous, HEK293 cells) (from UniProt Q96JN8 1-1562)”, which binding is on record?
The binding was “binds”.
